From article PMC7060337

Biological target: GST-tagged NDRG1 deletion mutant Δ2 (α/β hydrolase fold domain 90–306AA deleted)
Experiment: pull-down; GST fusion proteins immobilised on Glutathione Sepharose 4B, incubated with total cell lysate of HUVECs overnight at 4 °C; X-buffer (50 mM Tris-HCl pH 8.0, 1 mM EDTA, 120 mM NaCl, 0.5% NP-40, 10% glycerol, 1 mM PMSF); western blot with anti-PLCγ1; only the target purified

B1: phospholipase Cγ1 (PLCγ1), endogenous in HUVECs (enzyme, UniProt P19174 1-1290)
chain: MAGAASPCANGCGPGAPSDAEVLHLCRSLEVGTVMTLFYSKKSQRPERKTFQVKLETRQITWSRGADKIEGAIDIREIKEIRPGKTSRDFDRYQEDPAFRPDQSHCFVILYGMEFRLKTLSLQATSEDEVNMWIKGLTWLMEDTLQAPTPLQIERWLRKQFYSVDRNREDRISAKDLKNMLSQVNYRVPNMRFLRERLTDLEQRSGDITYGQFAQLYRSLMYSAQKTMDLPFLEASTLRAGERPELCRVSLPEFQQFLLDYQGELWAVDRLQVQEFMLSFLRDPLREIEEPYFFLDEFVTFLFSKENSVWNSQLDAVCPDTMNNPLSHYWISSSHNTYLTGDQFSSESSLEAYARCLRMGCRCIELDCWDGPDGMPVIYHGHTLTTKIKFSDVLHTIKEHAFVASEYPVILSIEDHCSIAQQRNMAQYFKKVLGDTLLTKPVEISADGLPSPNQLKRKILIKHKKLAEGSAYEEVPTSMMYSENDISNSIKNGILYLEDPVNHEWYPHYFVLTSSKIYYSEETSSDQGNEDEEEPKEVSSSTELHSNEKWFHGKLGAGRDGRHIAERLLTEYCIETGAPDGSFLVRESETFVGDYTLSFWRNGKVQHCRIHSRQDAGTPKFFLTDNLVFDSLYDLITHYQQVPLRCNEFEMRLSEPVPQTNAHESKEWYHASLTRAQAEHMLMRVPRDGAFLVRKRNEPNSYAISFRAEGKIKHCRVQQEGQTVMLGNSEFDSLVDLISYYEKHPLYRKMKLRYPINEEALEKIGTAEPDYGALYEGRNPGFYVEANPMPTFKCAVKALFDYKAQREDELTFIKSAIIQNVEKQEGGWWRGDYGGKKQLWFPSNYVEEMVNPVALEPEREHLDENSPLGDLLRGVLDVPACQIAIRPEGKNNRLFVFSISMASVAHWSLDVAADSQEELQDWVKKIREVAQTADARLTEGKIMERRKKIALELSELVVYCRPVPFDEEKIGTERACYRDMSSFPETKAEKYVNKAKGKKFLQYNRLQLSRIYPKGQRLDSSNYDPLPMWICGSQLVALNFQTPDKPMQMNQALFMTGRHCGYVLQPSTMRDEAFDPFDKSSLRGLEPCAISIEVLGARHLPKNGRGIVCPFVEIEVAGAEYDSTKQKTEFVVDNGLNPVWPAKPFHFQISNPEFAFLRFVVYEEDMFSDQNFLAQATFPVKGLKTGYRAVPLKNNYSEDLELASLLIKIDIFPAKENGDLSPFSGTSLRERGSDASGQLFHGRAREGSFESRYQQPFEDFRISQEHLADHFDSRERRAPRRTRVNGDNRL
binding: binds

No constants are given. Whether binding was seen depends on the method and setting. In cells and extracts the contact can be indirect. A result given as binding can be weak or reduced; the word gives no strength.
